Values from PubChem BioAssay AID1159578 (Peter MacCallum Cancer Centre, 2015).
In all, the deposit lists about 18,000 reagents; below is a random part of them. In the full data, about 1,030 (5.7%) were called active. 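Inactive calls also include pools with fewer than 3300 nuclei, whose migration was not assessed.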 Raw values vary from plate to plate and are shown uncorrected. Reagents against one gene are numbered here.

Aim: 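Genome-wide hunt for genes controlling movement of lymphatic endothelial cells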 (primary screen)
Cell system: human lymphatic endothelial cells
Knock-down reagent: siRNA pool against human genes, 40 nM
Duration: 48 h after transfection
Read-out: 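High-content imaging of dye-stained cells in a scratch assay measures filled wound area and nuclei per well; duplicate means given as ratio to mock and robust z-score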
Scale: migration robust z-score: higher = faster migration into the scratch; migration relative to mock: higher = more scratch area covered than mock; nuclei per well: higher = more cells in the well
Hit rule: 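Pools averaging fewer than 3300 nuclei are never called; remaining pools count as changed when migration robust z lies outside -2 to 2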
Meaning of the calls: active = migration changed; inactive = no migration change, or too few cells

gene,reagent no.,migration robust z-score,migration class with cell-count check,migration relative to mock,"nuclei per well, duplicate mean",activity call
RICTOR (GeneID 253260),1,0.78,migration z between -2 and 2; enough cells,1.09,6139,inactive
ABHD16B (GeneID 140701),1,-2.05,migration z below -2; enough cells,0.35,3798,active
TSHZ2 (GeneID 128553),1,1.66,migration z between -2 and 2; enough cells,1.31,6223,inactive
PDE11A (GeneID 50940),1,0.05,migration z between -2 and 2; enough cells,0.82,6066,inactive
TDRD1 (GeneID 56165),1,-0.54,migration z between -2 and 2; enough cells,0.74,4540,inactive
AGRP (GeneID 181),1,-0.56,migration z between -2 and 2; enough cells,0.74,6004,inactive
VCX3A (GeneID 51481),1,-2.34,migration z below -2; enough cells,0.28,4844,active
NDUFB6 (GeneID 4712),1,0.62,migration z between -2 and 2; enough cells,1.04,5326,inactive
NRG3 (GeneID 10718),1,0.69,migration z between -2 and 2; enough cells,1.06,5952,inactive
RRM2 (GeneID 6241),1,-2.91,under 3300 nuclei; migration not judged,0.25,1930,inactive
RRM2 (GeneID 6241),2,-0.63,migration z between -2 and 2; enough cells,0.72,4513,inactive
TM4SF5 (GeneID 9032),1,0,migration z between -2 and 2; enough cells,0.89,6936,inactive
ZNF564 (GeneID 163050),1,0.19,migration z between -2 and 2; enough cells,0.94,5014,inactive
RPL14 (GeneID 9045),1,-0.38,migration z between -2 and 2; enough cells,0.78,3902,inactive
NRP1 (GeneID 8829),1,0.18,migration z between -2 and 2; enough cells,0.84,5564,inactive
IL2RA (GeneID 3559),1,0.2,migration z between -2 and 2; enough cells,0.84,4420,inactive
SLC26A10P (GeneID 65012),1,-0.26,migration z between -2 and 2; enough cells,0.76,5718,inactive
SUPT20H (GeneID 55578),1,-1.39,migration z between -2 and 2; enough cells,0.52,5690,inactive
LHX2 (GeneID 9355),1,-0.38,migration z between -2 and 2; enough cells,0.79,5700,inactive
NUFIP1 (GeneID 26747),1,1.5,migration z between -2 and 2; enough cells,1.27,4996,inactive
DOCK8 (GeneID 81704),1,0.38,migration z between -2 and 2; enough cells,0.99,6459,inactive
PAMR1 (GeneID 25891),1,0.46,migration z between -2 and 2; enough cells,0.9,5006,inactive
SDC2 (GeneID 6383),1,1.14,migration z between -2 and 2; enough cells,1.18,6987,inactive
UTF1 (GeneID 8433),1,-0.96,migration z between -2 and 2; enough cells,0.62,6135,inactive
GEMIN8 (GeneID 54960),1,-0.14,migration z between -2 and 2; enough cells,0.85,5922,inactive
C8orf44 (GeneID 56260),1,-2.08,migration z below -2; enough cells,0.34,5980,active
CYBC1 (GeneID 79415),1,0.38,migration z between -2 and 2; enough cells,0.98,7486,inactive
F8A3 (GeneID 474384),1,0.2,migration z between -2 and 2; enough cells,0.94,5532,inactive
BAG4 (GeneID 9530),1,1.38,migration z between -2 and 2; enough cells,1.07,5604,inactive
HAPLN1 (GeneID 1404),1,-0.41,migration z between -2 and 2; enough cells,0.78,6228,inactive
PRCD (GeneID 768206),1,0.06,migration z between -2 and 2; enough cells,0.9,5774,inactive
HLA-DRB3 (GeneID 3125),1,0.48,migration z between -2 and 2; enough cells,1.01,5282,inactive
MAPK8IP2 (GeneID 23542),1,1.26,migration z between -2 and 2; enough cells,1.21,5832,inactive
COL24A1 (GeneID 255631),1,-0.7,migration z between -2 and 2; enough cells,0.7,5678,inactive
CDC26 (GeneID 246184),1,1.04,migration z between -2 and 2; enough cells,1.16,6095,inactive
USP54 (GeneID 159195),1,-0.98,migration z between -2 and 2; enough cells,0.63,6428,inactive
NID1 (GeneID 4811),1,1.68,migration z between -2 and 2; enough cells,1.31,6898,inactive
MYT1L (GeneID 23040),1,-1.5,migration z between -2 and 2; enough cells,0.52,3990,inactive
SCPEP1 (GeneID 59342),1,0.94,migration z between -2 and 2; enough cells,0.98,5915,inactive
ANGEL2 (GeneID 90806),1,-0.78,migration z between -2 and 2; enough cells,0.69,6013,inactive
NAA10 (GeneID 8260),1,-1.92,migration z between -2 and 2; enough cells,0.44,5798,inactive
RNF2 (GeneID 6045),1,-0.62,migration z between -2 and 2; enough cells,0.68,4794,inactive
TCP11L2 (GeneID 255394),1,0.25,migration z between -2 and 2; enough cells,0.94,4476,inactive
YTHDC2 (GeneID 64848),1,-1.12,migration z between -2 and 2; enough cells,0.6,4600,inactive
PELI2 (GeneID 57161),1,-0.22,migration z between -2 and 2; enough cells,0.82,5070,inactive
NPC2 (GeneID 10577),1,0.83,migration z between -2 and 2; enough cells,1.1,5816,inactive
TMEM167B (GeneID 56900),1,-0.12,migration z between -2 and 2; enough cells,0.85,6072,inactive
RPS20 (GeneID 6224),1,-1.79,migration z between -2 and 2; enough cells,0.42,3751,inactive
RAD54L2 (GeneID 23132),1,1.74,migration z between -2 and 2; enough cells,1.14,6721,inactive
SP4 (GeneID 6671),1,0.2,migration z between -2 and 2; enough cells,0.84,5764,inactive
GPR171 (GeneID 29909),1,0.34,migration z between -2 and 2; enough cells,0.87,6653,inactive
GPR183 (GeneID 1880),1,1.2,migration z between -2 and 2; enough cells,1.04,6982,inactive
STK11 (GeneID 6794),1,-1.97,under 3300 nuclei; migration not judged,0.42,1935,inactive
DESI2 (GeneID 51029),1,1.69,migration z between -2 and 2; enough cells,1.32,5188,inactive
RABGAP1L (GeneID 9910),1,2.41,migration z above 2; enough cells,1.51,5604,active
BRK1 (GeneID 55845),1,0.68,migration z between -2 and 2; enough cells,1.06,5291,inactive
TAAR8 (GeneID 83551),1,-0.05,migration z between -2 and 2; enough cells,0.8,6822,inactive

Only “nuclei per well, duplicate mean”, for 6 of the entries above:
VCX3A (GeneID 51481): 4844
NDUFB6 (GeneID 4712): 5326
NRG3 (GeneID 10718): 5952
RRM2 (GeneID 6241) #1: 1930
RRM2 (GeneID 6241) #2: 4513
TM4SF5 (GeneID 9032): 6936
